PubChem BioAssay AID720505 – Drosophila RNAi Screening Center, 2013

- Test: 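Fly regulators or components of the CRAC channel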 (primary screen)
- System: Drosophila S2R+ cells
- Reagents: long dsRNA against Drosophila genes
- Challenge: thapsigargin (2 µM) in calcium-free buffer to empty internal stores, then 2 mM calcium added back
- Detection: 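Stores emptied by 2 µM thapsigargin without calcium, then 2 mM calcium re-added; fluo-4 fluorescence followed by FLIPR in 384-well plates, per-well averaged endpoint, raw; two screen passes, some wells retested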
- Reading the numbers: calcium signal and retest calcium signal: higher = more calcium entry after store depletion
- Active means: 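About 1500 genes called as lowering calcium entry, by varying amounts, judged against per-plate control wells with STIM1 as positive and Rho1 as negative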
- Meaning of the calls: active = called as lowering calcium entry; inactive = not called
The deposit covers about 20,000 reagents; shown is a random part of those with a known target gene and a result. Over the whole deposit, about 2,100 (10%) got an active call. 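Raw plate signals without normalisation; calls rest on control-based scores that were not deposited; replicate 2 separates called from uncalled poorly.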 A plus sign joins genes that one reagent is predicted to hit. No sequences are given here. Not stated in the record: the amount of reagent, the time to read-out.

Gene	dsRNA	calcium signal, replicate 1	calcium signal, replicate 2	retest calcium signal, replicate 1	retest calcium signal, replicate 2	activity call
Eip63E	DRSC08658	85.7	104			inactive
cype	DRSC02356	223	88.1			inactive
Dora	DRSC19614	141	120			inactive
Dora	DRSC19781	123	119			inactive
Dora	DRSC20034	122	101			inactive
Dora	DRSC20035	117	98.3			inactive
CG5126	DRSC00680	145	218			inactive
CG8230	DRSC05931	64.6	120			active
Ada2b	DRSC16531	114	122			inactive
su(f)	DRSC20907	176	80.5			inactive
CG3594	DRSC04393	66.6	176			active
CG3594	DRSC21959	64.1	195			inactive
Nepl5	DRSC03241	108	177			inactive
cpo	DRSC14503	187	110			inactive
cpo	DRSC15327	199	130			inactive
cpo	DRSC16926	196	143			inactive
cpo	DRSC23006	183	163			inactive
CG12278	DRSC14494	140	133			inactive
CG6621	DRSC16076	115	120			inactive
eRF3	DRSC03322	123	149			inactive
Uqcc1 + CG9948	DRSC09690	113	85.2			inactive
Nipped-B	DRSC07815	85.5	141			inactive
CG13671	DRSC10030	87.1	72			inactive
CG9164	DRSC19087	95.2	88.7			inactive
CG9164	DRSC20162	128	108			inactive
CG42579	DRSC20391	91.2	145			inactive
CROT	DRSC14518	127	107			inactive
CROT	DRSC14519	69.1	120			active
CG7378	DRSC20041	83.4	111			inactive
MED6	DRSC16500	106	132			inactive
CG43737	DRSC19609	111	148			inactive
CG43737	DRSC19610	102	161			inactive
DEF8	DRSC09840	101	79.4			inactive
Nup35	DRSC19999	185	158			inactive
Vps29	DRSC00666	95.3	184			inactive
TER94	DRSC07560	114	145			inactive
CG42748	DRSC03712	137	104			inactive
CG42748	DRSC03713	67.6	143			active
CG42748	DRSC03734	149	99.8			inactive
CG3534	DRSC15494	142	102			inactive
CG14043	DRSC02368	140	87.6			inactive
CG13137	DRSC02234	128	112			inactive
CG14054	DRSC17909	99.2	113			inactive
lncRNA:roX2	DRSC22237	72	205			inactive
CG14736	DRSC14956	110	82.2			inactive
Cyp6a8	DRSC07384	187	131			inactive
CG14511	DRSC14863	112	114			inactive
CG34125	DRSC00850	96.8	165			inactive
CG30271	DRSC04170	117	134			inactive
Top3alpha	DRSC03460	137	95.8			inactive
Pde11	DRSC02028	156	159			inactive
Pde11	DRSC02460	131	115			inactive
dmpd	DRSC06092	148	128			inactive
zda	DRSC06936	77.9	73.8			active
GABPI	DRSC00494	152	297			inactive
vig	DRSC03630	109	140	128	158	inactive
vig	DRSC03631	130	116			inactive
vig	DRSC21672	195	112			inactive

Active calls (from the list above):
Gene	dsRNA	calcium signal, replicate 1	calcium signal, replicate 2	retest calcium signal, replicate 1	retest calcium signal, replicate 2	activity call
CG8230	DRSC05931	64.6	120			active
CG3594	DRSC04393	66.6	176			active
CROT	DRSC14519	69.1	120			active
CG42748	DRSC03713	67.6	143			active
zda	DRSC06936	77.9	73.8			active
